Test results taken from article PMC3521869 (Journal of medicinal chemistry, 2012).

The chains behind the UniProt entries cited, without tags or fusion partners.
UniProt P61073, whole entry: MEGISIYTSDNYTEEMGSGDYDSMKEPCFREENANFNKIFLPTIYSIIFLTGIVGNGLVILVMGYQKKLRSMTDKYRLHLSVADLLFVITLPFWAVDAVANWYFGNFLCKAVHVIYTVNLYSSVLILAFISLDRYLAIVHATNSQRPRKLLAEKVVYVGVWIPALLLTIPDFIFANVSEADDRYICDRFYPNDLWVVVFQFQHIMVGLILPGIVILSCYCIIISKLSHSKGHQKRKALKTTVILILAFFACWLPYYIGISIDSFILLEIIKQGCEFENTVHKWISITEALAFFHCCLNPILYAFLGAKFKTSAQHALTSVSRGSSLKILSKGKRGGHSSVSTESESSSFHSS

Target: CXCR4 (Homo sapiens, UniProt P61073)
Assay type: cell-based

CC[C@H](C)[C@@H]1NC(=O)[C@@H]2CSSC[C@@H]3NC(=O)[C@H](C(C)C)NC(=O)[C@H](CCCCN)NC(=O)[C@H](CCCNC(N)=O)NC(=O)[C@H](Cc4ccc(O)cc4)NC(=O)[C@@H]4CSSC[C@H](NC(=O)[C@H](CCCNC(N)=O)NC(=O)[C@H](CCCNC(=N)N)NC(=O)[C@H](Cc5ccc(O)cc5)NC(=O)[C@H](CO)NC(=O)CNC(=O)[C@@H]5CSSC[C@H](NC(=O)[C@H](CC(=O)O)NC(=O)[C@H](CO)NC(=O)[C@H](CC(=O)O)NC(=O)[C@H](CCCNC(=N)N)NC(=O)[C@H](CCCNC(=N)N)NC(=O)[C@H](CSSC[C@H](NC1=O)C(=O)N[C@@H](CCCNC(=N)N)C(=O)NCC(=O)N[C@@H](CC(N)=O)C(=O)NCC(=O)N[C@@H](Cc1ccc(O)cc1)C(=O)N5)NC(=O)[C@H](CCCNC(=N)N)NC(=O)[C@H](CCC(N)=O)NC(=O)[C@H](CC(C)C)NC(=O)[C@H]([C@@H](C)CC)NC(=O)[C@H](CCCCN)NC(=O)[C@@H]1CCCN1C3=O)C(=O)N1CCC[C@H]1C(=O)NCC(=O)N[C@@H](C)C(=O)N2)C(=O)N[C@@H](CCCNC(=N)N)C(=O)NCC(=O)N1CCC[C@@H]1C(=O)N[C@@H](CCCNC(=N)N)C(=O)N[C@@H](CCCNC(=N)N)C(=O)N[C@@H](Cc1ccc2ccccc2c1)C(=O)N4 [MCo-CVX-5c]
EC50: 19 ± 3 nM
